In patent US8173668B1, “Use of non-peptidic bradykinin receptor agonists to treat ocular hypertension and glaucoma” (Alcon Research, Ltd., priority 2007, dated 2012):
The source holds more than one record for some entries. The list is limited to them. The source may hold further records. The values listed for one entry appear to be repeats on other runs, samples or individuals.

Amino acid sequences for entries named in this document (tags omitted).
UniProt P30411, whole entry: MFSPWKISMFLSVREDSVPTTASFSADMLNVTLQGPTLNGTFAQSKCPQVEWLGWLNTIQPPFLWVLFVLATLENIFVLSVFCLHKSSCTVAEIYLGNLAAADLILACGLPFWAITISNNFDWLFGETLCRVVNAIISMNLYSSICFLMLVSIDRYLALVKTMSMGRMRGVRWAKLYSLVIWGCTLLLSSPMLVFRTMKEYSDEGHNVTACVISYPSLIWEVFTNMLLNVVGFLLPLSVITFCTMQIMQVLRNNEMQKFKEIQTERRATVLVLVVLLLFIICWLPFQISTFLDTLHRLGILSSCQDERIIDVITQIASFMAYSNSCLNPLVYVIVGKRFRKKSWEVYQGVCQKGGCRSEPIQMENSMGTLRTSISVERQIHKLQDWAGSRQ

Molecular target: BK B2-Receptor in h-TM cells (Homo sapiens, UniProt P30411)
Assay: Antagonism of FR-190997-induced [Ca2+]i mobilization in h-TM cells
Type: cell-based
Conditions: read-out: Antagonist Potency (Ki), FR-190997 as the agonist

Row | Ki | SMILES
1 | 68 nM and 349 nM | Cc1nc2c(OCc3c(Cl)ccc(N(C)C(=O)CNC(=O)/C=C/c4ccc(C(=O)N(C)C)cc4)c3Cl)cccn2c1Br [FR-167344]
2 | 110 nM and 317 nM | CC(=O)Nc1ccc(/C=C/C(=O)NCC(=O)N(C)c2ccc(Cl)c(COc3cccc4ccc(C)nc34)c2Cl)cn1 [FR-173657]
